No constants are given. Whether binding was seen depends on the method and setting. Binding seen in cells or lysates may run through a third protein. Some results given as binding are weak or reduced against the parent protein; the word gives no strength.
T1: ExbD (Escherichia coli K-12 (endogenous in W3110 derivatives)) (UniProt P0ABV2)
T1 sequence: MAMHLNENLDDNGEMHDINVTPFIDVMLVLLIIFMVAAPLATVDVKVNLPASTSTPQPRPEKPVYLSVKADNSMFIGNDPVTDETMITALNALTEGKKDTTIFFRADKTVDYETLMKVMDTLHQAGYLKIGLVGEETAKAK

T2: FepA V16C (Escherichia coli K-12) (UniProt P05825)
T2 sequence: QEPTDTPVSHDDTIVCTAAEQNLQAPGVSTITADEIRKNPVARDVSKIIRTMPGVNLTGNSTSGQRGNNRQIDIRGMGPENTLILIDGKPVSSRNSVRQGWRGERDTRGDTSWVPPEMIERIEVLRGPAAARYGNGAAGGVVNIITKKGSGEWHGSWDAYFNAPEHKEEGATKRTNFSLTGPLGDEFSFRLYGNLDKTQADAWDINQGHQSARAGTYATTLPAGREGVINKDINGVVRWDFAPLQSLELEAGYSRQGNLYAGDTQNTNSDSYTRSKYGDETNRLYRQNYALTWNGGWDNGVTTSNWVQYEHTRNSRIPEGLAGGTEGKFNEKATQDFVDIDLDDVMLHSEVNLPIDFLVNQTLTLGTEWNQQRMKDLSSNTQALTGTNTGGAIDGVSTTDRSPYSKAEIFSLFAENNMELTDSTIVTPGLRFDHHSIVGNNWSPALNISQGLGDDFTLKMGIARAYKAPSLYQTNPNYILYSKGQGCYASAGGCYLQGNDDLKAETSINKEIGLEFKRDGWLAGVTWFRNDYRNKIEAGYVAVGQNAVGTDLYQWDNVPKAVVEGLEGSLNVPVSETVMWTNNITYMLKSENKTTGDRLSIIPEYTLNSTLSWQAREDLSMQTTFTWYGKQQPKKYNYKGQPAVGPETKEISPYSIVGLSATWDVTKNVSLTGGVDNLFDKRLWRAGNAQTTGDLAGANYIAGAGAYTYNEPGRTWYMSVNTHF

T3: FepA, wild type, chromosomally encoded (Escherichia coli K-12 (endogenous in W3110)), P05825
T3 chain: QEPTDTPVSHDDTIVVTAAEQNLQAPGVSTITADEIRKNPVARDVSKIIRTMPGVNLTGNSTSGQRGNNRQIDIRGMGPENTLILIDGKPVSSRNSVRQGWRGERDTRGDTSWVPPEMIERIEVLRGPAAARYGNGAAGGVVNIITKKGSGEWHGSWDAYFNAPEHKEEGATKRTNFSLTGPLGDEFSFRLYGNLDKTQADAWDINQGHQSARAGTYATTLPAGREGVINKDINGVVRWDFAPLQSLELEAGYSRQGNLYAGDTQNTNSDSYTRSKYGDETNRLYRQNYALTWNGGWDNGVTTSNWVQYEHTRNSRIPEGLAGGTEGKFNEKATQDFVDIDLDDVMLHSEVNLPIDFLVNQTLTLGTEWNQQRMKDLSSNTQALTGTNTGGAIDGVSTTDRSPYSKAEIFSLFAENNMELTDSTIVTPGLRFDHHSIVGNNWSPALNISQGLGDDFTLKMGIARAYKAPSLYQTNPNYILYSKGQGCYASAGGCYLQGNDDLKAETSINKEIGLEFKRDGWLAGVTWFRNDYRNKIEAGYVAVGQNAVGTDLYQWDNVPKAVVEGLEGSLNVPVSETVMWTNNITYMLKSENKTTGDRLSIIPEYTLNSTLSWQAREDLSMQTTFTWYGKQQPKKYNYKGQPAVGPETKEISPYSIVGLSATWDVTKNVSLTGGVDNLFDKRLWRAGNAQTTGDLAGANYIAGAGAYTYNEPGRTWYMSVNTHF

B1: TonB, wild type, chromosomally encoded, P02929 1-239 (protein)
chain: MTLDLPRRFPWPTLLSVCIHGAVVAGLLYTSVHQVIELPAPAQPISVTMVTPADLEPPQAVQPPPEPVVEPEPEPEPIPEPPKEAPVVIEKPKPKPKPKPKPVKKVQEQPKRDVKPVESRPASPFENTAPARLTSSTATAATSKPVTSVASGPRALSRNQPQYPARAQALRIEGQVKVKFDVTPDGRVDNVQILSAKPANMFEREVKNAMRRWRYEPGKPGSGIVVNILFKINGTTEIQ

How the values were obtained:
Experiment in all cases: cross-linking
[1] = molecular target: T1, ExbD (Escherichia coli K-12 (endogenous in W3110 derivatives))
[2] = molecular target: T2, FepA V16C (Escherichia coli K-12)
[3] = molecular target: T3, FepA, wild type, chromosomally encoded …; conditions: remark: other sources report otherwise

Molecule	binding [1]	further results
TonB F202A, W213A (pKP531) (from UniProt P02929 1-239)	no binding	
TonB, plasmid-encoded (pKP442) (from UniProt P02929 1-239)	binds	
TonB C18G Q160C F202A (from UniProt P02929 1-239)		binding [2]: binds
TonB F202A, Y215A (pKP532) (from UniProt P02929 1-239)	no binding	
B1		binding [3]: no binding
